According to paper PMC7773550:
No constants are given. Whether binding was seen depends on the method and setting. Binding seen in cells or lysates may run through a third protein. Some binding calls cover weakened binding; strength is not graded here.

Amino acid sequences for entries named in this document (tags omitted). A change or cut given only in a name is not applied to a line headed by its entry.
UniProt P40763: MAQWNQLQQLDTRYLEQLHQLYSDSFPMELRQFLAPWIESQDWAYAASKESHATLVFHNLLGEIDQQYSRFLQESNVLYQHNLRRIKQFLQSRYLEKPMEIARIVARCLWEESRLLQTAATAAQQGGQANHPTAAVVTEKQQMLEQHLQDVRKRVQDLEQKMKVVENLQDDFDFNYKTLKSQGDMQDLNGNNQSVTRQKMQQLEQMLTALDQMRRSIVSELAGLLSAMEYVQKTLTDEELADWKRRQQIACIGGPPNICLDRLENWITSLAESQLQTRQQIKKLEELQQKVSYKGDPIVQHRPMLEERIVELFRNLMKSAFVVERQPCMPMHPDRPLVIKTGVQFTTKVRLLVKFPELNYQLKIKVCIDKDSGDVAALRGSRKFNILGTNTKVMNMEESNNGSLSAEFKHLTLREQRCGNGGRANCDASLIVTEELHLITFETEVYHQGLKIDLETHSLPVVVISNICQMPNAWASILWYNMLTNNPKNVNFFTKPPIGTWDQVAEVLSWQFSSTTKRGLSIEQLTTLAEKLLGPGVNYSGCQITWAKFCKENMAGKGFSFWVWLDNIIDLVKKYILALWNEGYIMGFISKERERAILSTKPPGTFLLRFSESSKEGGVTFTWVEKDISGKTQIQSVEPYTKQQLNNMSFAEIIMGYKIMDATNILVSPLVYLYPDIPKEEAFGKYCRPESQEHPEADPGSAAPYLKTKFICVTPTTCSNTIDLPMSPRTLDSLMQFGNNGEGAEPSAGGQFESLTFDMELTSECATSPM
UniProt P49336: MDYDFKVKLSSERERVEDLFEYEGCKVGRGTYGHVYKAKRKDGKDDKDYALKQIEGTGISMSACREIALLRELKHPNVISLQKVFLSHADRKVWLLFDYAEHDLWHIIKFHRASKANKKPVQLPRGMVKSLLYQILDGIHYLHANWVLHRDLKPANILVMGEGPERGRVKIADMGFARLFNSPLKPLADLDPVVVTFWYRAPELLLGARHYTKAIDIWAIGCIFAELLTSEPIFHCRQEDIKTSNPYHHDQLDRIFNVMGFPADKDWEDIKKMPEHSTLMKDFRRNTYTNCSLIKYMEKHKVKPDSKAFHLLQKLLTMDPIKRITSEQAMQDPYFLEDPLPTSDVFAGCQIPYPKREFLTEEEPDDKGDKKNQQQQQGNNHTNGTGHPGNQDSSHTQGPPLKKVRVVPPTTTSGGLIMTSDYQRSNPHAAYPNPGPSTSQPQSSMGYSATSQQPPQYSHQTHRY
UniProt P50750: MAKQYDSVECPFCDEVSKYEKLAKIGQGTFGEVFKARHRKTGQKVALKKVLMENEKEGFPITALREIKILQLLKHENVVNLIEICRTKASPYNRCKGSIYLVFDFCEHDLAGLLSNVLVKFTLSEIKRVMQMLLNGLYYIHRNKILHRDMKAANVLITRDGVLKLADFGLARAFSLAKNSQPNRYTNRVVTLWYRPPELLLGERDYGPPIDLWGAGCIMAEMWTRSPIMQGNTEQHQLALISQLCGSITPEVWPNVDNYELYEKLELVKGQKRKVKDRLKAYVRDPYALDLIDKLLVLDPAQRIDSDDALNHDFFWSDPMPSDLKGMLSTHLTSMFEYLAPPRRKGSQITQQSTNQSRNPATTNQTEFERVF

Key:
[1] = target: STAT3 (human (endogenous in primary CD4+ T cells)) (UniProt P40763); assay: proximity ligation; activated human primary CD4+ T cells, untreated (no HyIL-6, no inhibitor); fixed, methanol-permeabilised, stained with anti-STAT3 and anti-CDK8 or anti-CDK9; endogenous proteins
[2] = target: STAT3 (human (endogenous in primary CD4+ T cells)) (UniProt P40763); assay: proximity ligation; activated human primary CD4+ T cells stimulated with 20 nM HyIL-6 (time course, peak at 30 min), also with or with only 2 uM MSC2530818 or 2 uM flavopiridol; fixed, methanol-permeabilised, stained with anti-STAT3 and anti-CDK8 or anti-CDK9; endogenous proteins
[3] = target: STAT3 S727A-GFP (human) (UniProt P40763); assay: proximity ligation; STAT3 KnD Hut78 cells reconstituted with STAT3 WT-GFP or STAT3 S727A-GFP, unstimulated or stimulated with 20 nM HyIL-6 (time course); nuclear STAT3/CDK9 PLA signal read in GFP-positive cells
[4] = target: STAT3 WT-GFP (human) (UniProt P40763); assay: as above

Substance | binding [1] | binding [2] | binding [3] | binding [4]
CDK8 (from UniProt P49336 1-464) (enzyme) | binds weakly | binds |  | 
CDK9 (from UniProt P50750 1-372) (enzyme) | binds weakly | binds | binds | binds
